Data taken from PubChem BioAssay AID1347423 (Functional Genomics Laboratory (NCATS/FGL), 2020).
About 210 (0.4%) of roughly 52,000 sequences were called active.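 How the source made its calls: active means gene whose silencing raises cell survival under the drug, median off-target-corrected z-score across its silencing RNAs 2 or more; inactive means the rest.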 The list shows a part of the results.

test: Resistance to Poly (ADP-Ribose) Polymerase inhibitor: Gene Identification via Genome-wide siRNA Screen; settings: mouse BRCA2 R2336H ES cells, olaparib, CellTiter-Glo viability; active compounds read high
Summary of the method: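 Genome-wide siRNA screen (3 siRNAs/gene, 20 nM) in mouse ES cells carrying hypomorphic BRCA2 R2336H; olaparib 500 nM added 48 h post-transfection, CellTiter-Glo viability 72 h later. Normalized to plate-median negative control; MAD z-scores, gene median, seed-adjusted.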

Sequence | z-score
CCAACUACAAGACCAUCGGTT against Akp3 | inactive: -0.613
CCUAAAGAGGUGGUUGAACTT against 2810407K09Rik | inactive: 0.855
GGAAGGAGUAUGAAAAGAATT against Scgb3a2 | inactive: -0.343
GCUCUGAACUCAAUAAUAATT against Apg7l | inactive: -0.403
GGACCUAUCAACUGAGUUUTT against Hrc | inactive: -0.913
GGACUUCUCAUCCUAUUUATT against 4833421E05Rik | inactive: -1.38
GCACUUCCGAACAUCUAGCTT against 9130404D08Rik | inactive: -0.104
CCUUUAAAUGACCAUACUUTT against 1810057B09Rik | inactive: 0.45
CCAUGCCCACUGGAUAGAUTT against BC047219 | inactive: 1.82
GGAUCUGCCUGAUCAAAAGTT against Ivl | inactive: 0.543
GGAGGAGUGCAAGAAGAAGTT against 1110025H10Rik | inactive: -1.36
GGAUUACAGGCAUUUGGUUTT against Hmgn1 | inactive: -0.0101
GCUGGAGUUCAGAACAUAATT against C920008G01Rik | inactive: 0.0423
GCAUCAAACCUGGUUCGAATT against Mast2 | inactive: -0.818
GGCAAUGGACCUUUGAUGCTT against 2310042N02Rik | inactive: -0.531
GGUAGCUGUGAAGAUCAUCTT against Mark2 | inactive: -0.201
GGUCCUUGAGCUAAGGACATT against A030009A06Rik | inactive: -0.081
CCUGAAUUCUACAAGGUUATT against Plg | inactive: 1.13
GCGCAAGGAUAACUUUCAATT against Pib5pa | inactive: -0.309
GGCUAGACUACAUCACAGCTT against H2-Ke2 | inactive: 0.000787
AGGAAAGCUUUCUUCACCUTT against Olfr206 | inactive: 0.214
GCCACUUAGAAUGACCUAATT against 5330431N19Rik | inactive: 1.35
GGAAAAGAAAAUCAUUGCGTT against 1500016L11Rik | inactive: -0.595
GGGCGACUUUAGCUUUUAUTT against MGC47262 | inactive: -1.24
GGCUUUUAGACAUUUAUCUTT against Pdlim3 | inactive: 0.279
GCUAAUUCAUGAAUUGAUGTT against Ofd1 | inactive: -0.985

Sequence | z-score
GCUAUCGUUCGUCCAGCAUTT against Atf2 | inactive: -2.27
CCAUUUGAUCAAGCUUUAGTT against Spock3 | inactive: 0.707
GGUAUCAAUGAUUUUCUUGTT against Tas2r110 | inactive: 0.357
GGAAACAUCAGUGAGUCCGTT against Igfbp3 | inactive: 0.385
GCGGUAGUUUCACACUUAUTT against Onecut1 | inactive: -0.281
GCGCGACAACCUGAUUCAATT against BC034204 | inactive: 1.36
GGCAUUAUACCCAUCAGGCTT against Mtvr2 | inactive: 0.835
CGGUAUGAGUAGGAUCUCCTT against Cd83 | inactive: -0.494
CCAUCCGUAACAUCGACUGTT against 5730589L02Rik | inactive: 0.333
GGAGAUCUCAGAGAGUGAGTT against Drpla | inactive: 0.854
GCUACGGCCAGACGAACUUTT against A430005L14Rik | inactive: 0.527
GGAGGGACCAGAAAUAAUUTT against Snag1 | inactive: 1.04
GGAGAUUGGCAUAGAGAAGTT against Myo5b | inactive: 0.495
GGAGUCCGCUCAGAAUUUGTT against 2310007H09Rik | inactive: -0.391
GGAAACAACUGAUGACUUATT against Slc7a8 | inactive: -0.308
GCUAGGAUGUCUGAAAGAGTT against 4921528I01Rik | inactive: 1.35
GGCUGUGCUUUACAACUUUTT against Olfr982 | inactive: -0.183
GCUCCUUUAUAUUCAACUGTT against Ddx11 | inactive: -0.0177
GACCUUCCUGUCUUCCCUCTT against Cklfsf5 | inactive: 0.536
GGGCUGGAAUAAACUUGUCTT against Usp15 | active: 1.51
GGAUGUCAACAUUCGAGAUTT against 4932417I16Rik | inactive: 0.888
GGGAAUUAGCCAUUAUAACTT against Pcdhb11 | inactive: 0.4
GCUACAGCAGACAUAGAAATT against Sparcl1 | inactive: -0.131
GCAAAAACCGUGAUGUGUATT against 1810054G18Rik | inactive: -0.463
GGAUUACCAAUCGGCCAAGTT against Egr3 | inactive: 0.0854
GGUUCUAGAUGCUAAUAAGTT against Narfl | inactive: -0.875

Exported in markdown: part of the list above.

| Sequence | z-score |
| --- | --- |
| GCUGGAGUUCAGAACAUAATT against C920008G01Rik | inactive: 0.0423 |
| GCAUCAAACCUGGUUCGAATT against Mast2 | inactive: -0.818 |
| GGCAAUGGACCUUUGAUGCTT against 2310042N02Rik | inactive: -0.531 |
| GGUAGCUGUGAAGAUCAUCTT against Mark2 | inactive: -0.201 |
| GGUCCUUGAGCUAAGGACATT against A030009A06Rik | inactive: -0.081 |
| CCUGAAUUCUACAAGGUUATT against Plg | inactive: 1.13 |
| GCGCAAGGAUAACUUUCAATT against Pib5pa | inactive: -0.309 |
| GGCUAGACUACAUCACAGCTT against H2-Ke2 | inactive: 0.000787 |
| AGGAAAGCUUUCUUCACCUTT against Olfr206 | inactive: 0.214 |
| GCCACUUAGAAUGACCUAATT against 5330431N19Rik | inactive: 1.35 |
| GGAAAAGAAAAUCAUUGCGTT against 1500016L11Rik | inactive: -0.595 |
| GGGCGACUUUAGCUUUUAUTT against MGC47262 | inactive: -1.24 |
| GGCUUUUAGACAUUUAUCUTT against Pdlim3 | inactive: 0.279 |
| GCUAAUUCAUGAAUUGAUGTT against Ofd1 | inactive: -0.985 |
| GCUAUCGUUCGUCCAGCAUTT against Atf2 | inactive: -2.27 |
| CCAUUUGAUCAAGCUUUAGTT against Spock3 | inactive: 0.707 |
